Measured values published in paper PMC10131372.
No constants are given. Whether binding was seen depends on the method and setting. In cells and extracts the contact can be indirect. Some results given as binding are weak or reduced against the parent protein; the word gives no strength.

T1: Aurora kinase A (AURKA) (human (endogenous in EJ)) (UniProt O14965)
T1 sequence: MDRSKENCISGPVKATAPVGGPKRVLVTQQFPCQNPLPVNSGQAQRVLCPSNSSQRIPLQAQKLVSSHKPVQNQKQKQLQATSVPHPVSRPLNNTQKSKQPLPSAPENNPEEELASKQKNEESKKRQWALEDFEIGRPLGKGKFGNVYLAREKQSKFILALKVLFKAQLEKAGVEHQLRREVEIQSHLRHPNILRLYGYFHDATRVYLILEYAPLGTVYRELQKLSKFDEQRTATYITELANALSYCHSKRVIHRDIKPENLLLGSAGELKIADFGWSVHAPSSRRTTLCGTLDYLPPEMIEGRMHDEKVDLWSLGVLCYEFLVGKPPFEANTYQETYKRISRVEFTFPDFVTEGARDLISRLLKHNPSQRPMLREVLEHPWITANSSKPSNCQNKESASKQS

T2: SCL/TAL1 interrupting locus (STIL) (human (endogenous in EJ)) (UniProt Q15468)
T2 sequence: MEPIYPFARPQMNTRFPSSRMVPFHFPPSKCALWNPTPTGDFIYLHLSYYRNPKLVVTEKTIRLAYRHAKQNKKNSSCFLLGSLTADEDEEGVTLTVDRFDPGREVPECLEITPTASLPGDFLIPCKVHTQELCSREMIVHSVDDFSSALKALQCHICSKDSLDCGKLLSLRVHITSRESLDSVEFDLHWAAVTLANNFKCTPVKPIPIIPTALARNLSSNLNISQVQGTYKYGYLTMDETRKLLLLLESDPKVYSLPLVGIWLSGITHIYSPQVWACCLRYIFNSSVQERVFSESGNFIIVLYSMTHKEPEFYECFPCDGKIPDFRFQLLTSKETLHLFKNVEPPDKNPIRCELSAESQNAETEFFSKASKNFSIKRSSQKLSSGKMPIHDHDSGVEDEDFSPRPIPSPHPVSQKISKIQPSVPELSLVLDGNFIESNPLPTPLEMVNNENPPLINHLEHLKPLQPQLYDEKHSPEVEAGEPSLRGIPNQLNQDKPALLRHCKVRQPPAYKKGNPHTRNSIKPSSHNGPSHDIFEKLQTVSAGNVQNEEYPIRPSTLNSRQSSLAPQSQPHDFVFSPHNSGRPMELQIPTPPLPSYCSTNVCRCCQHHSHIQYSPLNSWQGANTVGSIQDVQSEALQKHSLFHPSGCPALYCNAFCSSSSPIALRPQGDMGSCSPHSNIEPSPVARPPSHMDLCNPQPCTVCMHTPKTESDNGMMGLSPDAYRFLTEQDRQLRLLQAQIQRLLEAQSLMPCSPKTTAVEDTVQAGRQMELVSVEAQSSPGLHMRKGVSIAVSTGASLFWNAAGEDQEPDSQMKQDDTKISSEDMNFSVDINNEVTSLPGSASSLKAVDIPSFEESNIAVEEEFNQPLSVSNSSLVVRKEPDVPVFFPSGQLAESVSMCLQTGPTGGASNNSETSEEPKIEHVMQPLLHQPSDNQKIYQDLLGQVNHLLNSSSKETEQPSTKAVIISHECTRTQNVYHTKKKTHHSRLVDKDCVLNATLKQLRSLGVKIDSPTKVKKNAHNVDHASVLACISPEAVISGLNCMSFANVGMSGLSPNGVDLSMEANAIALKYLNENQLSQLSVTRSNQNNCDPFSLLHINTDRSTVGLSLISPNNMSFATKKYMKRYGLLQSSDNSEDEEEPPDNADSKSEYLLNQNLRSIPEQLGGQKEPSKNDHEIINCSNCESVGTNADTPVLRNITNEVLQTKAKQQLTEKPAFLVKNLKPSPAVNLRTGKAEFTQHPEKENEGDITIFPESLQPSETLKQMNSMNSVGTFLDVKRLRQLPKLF


Experiments:
[1] = target: T1, Aurora kinase A (AURKA) (human (endogenous in EJ)); assay: co-IP; EJ cell lysate (IP Lysis/Wash Buffer with 1% PMSF); anti-STIL, anti-AURKA or mouse IgG antibody immobilised on AminoLink Plus coupling resin (Pierce co-IP kit); 4 °C overnight; Western blot
[2] = target: T2, SCL/TAL1 interrupting locus (STIL) (human (endogenous in EJ)); assay: as above

| binding [1] | binding [2] | Binder |
| --- | --- | --- |
| binds |  | SCL/TAL1 interrupting locus (STIL) (protein, UniProt Q15468 1-1287) MEPIYPFARPQMNTRFPSSRMVPFHFPPSKCALWNPTPTGDFIYLHLSYYRNPKLVVTEKTIRLAYRHAKQNKKNSSCFLLGSLTADEDEEGVTLTVDRFDPGREVPECLEITPTASLPGDFLIPCKVHTQELCSREMIVHSVDDFSSALKALQCHICSKDSLDCGKLLSLRVHITSRESLDSVEFDLHWAAVTLANNFKCTPVKPIPIIPTALARNLSSNLNISQVQGTYKYGYLTMDETRKLLLLLESDPKVYSLPLVGIWLSGITHIYSPQVWACCLRYIFNSSVQERVFSESGNFIIVLYSMTHKEPEFYECFPCDGKIPDFRFQLLTSKETLHLFKNVEPPDKNPIRCELSAESQNAETEFFSKASKNFSIKRSSQKLSSGKMPIHDHDSGVEDEDFSPRPIPSPHPVSQKISKIQPSVPELSLVLDGNFIESNPLPTPLEMVNNENPPLINHLEHLKPLQPQLYDEKHSPEVEAGEPSLRGIPNQLNQDKPALLRHCKVRQPPAYKKGNPHTRNSIKPSSHNGPSHDIFEKLQTVSAGNVQNEEYPIRPSTLNSRQSSLAPQSQPHDFVFSPHNSGRPMELQIPTPPLPSYCSTNVCRCCQHHSHIQYSPLNSWQGANTVGSIQDVQSEALQKHSLFHPSGCPALYCNAFCSSSSPIALRPQGDMGSCSPHSNIEPSPVARPPSHMDLCNPQPCTVCMHTPKTESDNGMMGLSPDAYRFLTEQDRQLRLLQAQIQRLLEAQSLMPCSPKTTAVEDTVQAGRQMELVSVEAQSSPGLHMRKGVSIAVSTGASLFWNAAGEDQEPDSQMKQDDTKISSEDMNFSVDINNEVTSLPGSASSLKAVDIPSFEESNIAVEEEFNQPLSVSNSSLVVRKEPDVPVFFPSGQLAESVSMCLQTGPTGGASNNSETSEEPKIEHVMQPLLHQPSDNQKIYQDLLGQVNHLLNSSSKETEQPSTKAVIISHECTRTQNVYHTKKKTHHSRLVDKDCVLNATLKQLRSLGVKIDSPTKVKKNAHNVDHASVLACISPEAVISGLNCMSFANVGMSGLSPNGVDLSMEANAIALKYLNENQLSQLSVTRSNQNNCDPFSLLHINTDRSTVGLSLISPNNMSFATKKYMKRYGLLQSSDNSEDEEEPPDNADSKSEYLLNQNLRSIPEQLGGQKEPSKNDHEIINCSNCESVGTNADTPVLRNITNEVLQTKAKQQLTEKPAFLVKNLKPSPAVNLRTGKAEFTQHPEKENEGDITIFPESLQPSETLKQMNSMNSVGTFLDVKRLRQLPKLF |
|  | binds | Aurora kinase A (AURKA) (protein, UniProt O14965 1-403) MDRSKENCISGPVKATAPVGGPKRVLVTQQFPCQNPLPVNSGQAQRVLCPSNSSQRIPLQAQKLVSSHKPVQNQKQKQLQATSVPHPVSRPLNNTQKSKQPLPSAPENNPEEELASKQKNEESKKRQWALEDFEIGRPLGKGKFGNVYLAREKQSKFILALKVLFKAQLEKAGVEHQLRREVEIQSHLRHPNILRLYGYFHDATRVYLILEYAPLGTVYRELQKLSKFDEQRTATYITELANALSYCHSKRVIHRDIKPENLLLGSAGELKIADFGWSVHAPSSRRTTLCGTLDYLPPEMIEGRMHDEKVDLWSLGVLCYEFLVGKPPFEANTYQETYKRISRVEFTFPDFVTEGARDLISRLLKHNPSQRPMLREVLEHPWITANSSKPSNCQNKESASKQS |
